At least one structure is not confirmed: it was looked up by name or label, or the drawing left a doubt.
Assays:
[1] = Budesonide concentration in autoclaved 20% SAE-CD solution by HPLC (Example 22); assay type: physicochemical; settings: 25 mg budesonide and 2 grams SAE-CD in 10 mL 3 mM citrate buffer pH 4.5, autoclaved 121° C.
[2] = as worded, cited from earlier work

CCCC1O[C@@H]2C[C@H]3[C@@H]4CCC5=CC(=O)C=C[C@]5(C)[C@H]4[C@@H](O)C[C@]3(C)[C@]2(C(=O)CO)O1 (stereo partly drawn) [Budesonide, (R,S)-11β,16α,17,21-tetrahydroxypregna-1,4-diene-3,20-dione cyclic 16,17-acetal with butyraldehyde]
concentration of clear budesonide solution by HPLC [1]: 2100 µg/mL
greatest chemical shelf-life ([2]; budesonide solutions with cyclodextrin and/or EDTA as stabilizer): three to six months
shelf-life ([2]; pH 4.0-6.0 in water in the presence of EDTA, HP-β-CD and other additives): up to six weeks

From patent US20070020298A1, “Inhalant formulation containing sulfoalkyl ether gamma-cyclodextrin and corticosteroid” (priority 2003, published 2007)
